Experimental data: PubChem BioAssay AID743454 (Peter MacCallum Cancer Centre, 2014)
Here is a random part of about 18,000 deposited reagents. Of all reagents, 450 (2.5%) are marked active. 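Single biological run; no consistent viability z cut-off exists, so the class columns, not z-scores, define the calls.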 Entries without a mark were called inactive.

Aim: 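Knock-downs lowering viability or raising caspase 3/7 activity in vorinostat-treated resistant cells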 (primary screen)
Cell system: human HCT116-VR colon cancer cells, selected for vorinostat resistance
Reagent: siRNA pool against human genes, 40 nM siRNA pool
Timing: vorinostat for 24 h, read-out about 72 h after transfection
Treatment: vorinostat at 2.5 µM final
Detection: 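Cell viability by CellTiter-Fluor and caspase 3/7 activity by luminescence, each scaled to mock wells per plate, duplicates averaged, then robust z-scored over all plates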
Reading the numbers: viability robust z-score: higher = more viable cells than screen typical; caspase robust z-score: higher = more caspase 3/7 activity than screen typical
Call rule: 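Hits are knock-downs in viability class RV1/RV2 or caspase class CA1/CA2, excluding ones that killed cells in the no-drug cell-count arm; hits then retested with single siRNAs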

The first 2 records, to show the layout:
TNFSF13 [SID134315854]
- viability hit class: no change
- caspase hit class: no change
- viability robust z-score: 1.64
- caspase robust z-score: -0.96

LRRC46 [SID134319168]
- viability hit class: no change
- caspase hit class: no change
- viability robust z-score: -1.22
- caspase robust z-score: -0.94

Results, from the first entry:
TNFSF13 [SID134315854]
- viability hit class: no change
- caspase hit class: no change
- viability robust z-score: 1.64
- caspase robust z-score: -0.96

LRRC46 [SID134319168]
- viability hit class: no change
- caspase hit class: no change
- viability robust z-score: -1.22
- caspase robust z-score: -0.94

ZBTB12 [SID152154906]
- viability hit class: no change
- caspase hit class: no change
- viability robust z-score: 0.2
- caspase robust z-score: 0.4

GABBR2 [SID134311021]
- viability hit class: no change
- caspase hit class: no change
- viability robust z-score: 0
- caspase robust z-score: -0.11

FAM27E5 [SID152148480]
- viability hit class: no change
- caspase hit class: no change
- viability robust z-score: -1.1
- caspase robust z-score: 0.23

IFNGR1 [SID134315421]
- viability hit class: no change
- caspase hit class: no change
- viability robust z-score: -0.64
- caspase robust z-score: -0.56

RSPO3 [SID152148560]
- viability hit class: no change
- caspase hit class: no change
- viability robust z-score: -0.12
- caspase robust z-score: -0.26

CTNNB1 [SID134309920]
- viability hit class: no change
- caspase hit class: no change
- viability robust z-score: -2.26
- caspase robust z-score: 2.87

METRNL [SID152156645]
- viability hit class: no change (active)
- caspase hit class: CA1 (caspase activation)
- viability robust z-score: -1.18
- caspase robust z-score: 5.37

KARS1 [SID134316409]
- viability hit class: no change
- caspase hit class: no change
- viability robust z-score: -2.29
- caspase robust z-score: 2.42

C1R [SID152153762]
- viability hit class: no change
- caspase hit class: no change
- viability robust z-score: -1.9
- caspase robust z-score: 0.46

ANO5 [SID134326647]
- viability hit class: no change
- caspase hit class: no change
- viability robust z-score: 0.38
- caspase robust z-score: -0.84

ZAP70 [SID56479064]
- viability hit class: no change
- caspase hit class: no change
- viability robust z-score: -0.98
- caspase robust z-score: 1.55

DIO1 [SID135622071]
- viability hit class: no change
- caspase hit class: no change
- viability robust z-score: -5.35
- caspase robust z-score: -0.23

BLOC1S2 [SID134322207]
- viability hit class: no change
- caspase hit class: no change
- viability robust z-score: -0.5
- caspase robust z-score: -1.15

MORN1 [SID134318630]
- viability hit class: no change
- caspase hit class: no change
- viability robust z-score: 0.46
- caspase robust z-score: 1.6

POLE2 [SID134322461]
- viability hit class: no change
- caspase hit class: no change
- viability robust z-score: 0.88
- caspase robust z-score: -0.83

CXCL17 [SID134326823]
- viability hit class: no change
- caspase hit class: no change
- viability robust z-score: 0.34
- caspase robust z-score: -1.14

ERP29 [SID135622296]
- viability hit class: no change
- caspase hit class: no change
- viability robust z-score: -0.42
- caspase robust z-score: 0.92

NPRL2 [SID152150533]
- viability hit class: no change
- caspase hit class: no change
- viability robust z-score: -0.63
- caspase robust z-score: 1.05

TLR2 [SID152153204]
- viability hit class: no change
- caspase hit class: no change
- viability robust z-score: -0.6
- caspase robust z-score: -1.26

CLCN5 [SID152148100]
- viability hit class: no change
- caspase hit class: no change
- viability robust z-score: 0.24
- caspase robust z-score: -0.21

OR2A5 [SID134326343]
- viability hit class: no change
- caspase hit class: no change
- viability robust z-score: -0.19
- caspase robust z-score: -0.9

GAP43 [SID56479250]
- viability hit class: no change
- caspase hit class: no change
- viability robust z-score: 0.6
- caspase robust z-score: -0.74

RNF148 [SID134315249]
- viability hit class: no change
- caspase hit class: no change
- viability robust z-score: -0.19
- caspase robust z-score: 0.8

ENDOV [SID152154871]
- viability hit class: no change
- caspase hit class: no change
- viability robust z-score: 0.48
- caspase robust z-score: -0.19

AMY2A [SID152151881]
- viability hit class: no change
- caspase hit class: no change
- viability robust z-score: 0.02
- caspase robust z-score: -0.24
